Binding data for 1 substance are collected here from PMC5006980.

Amino acid sequences for entries named in this document (tags omitted). Residues count along the entry.
UniProt P14349, residues 1-544: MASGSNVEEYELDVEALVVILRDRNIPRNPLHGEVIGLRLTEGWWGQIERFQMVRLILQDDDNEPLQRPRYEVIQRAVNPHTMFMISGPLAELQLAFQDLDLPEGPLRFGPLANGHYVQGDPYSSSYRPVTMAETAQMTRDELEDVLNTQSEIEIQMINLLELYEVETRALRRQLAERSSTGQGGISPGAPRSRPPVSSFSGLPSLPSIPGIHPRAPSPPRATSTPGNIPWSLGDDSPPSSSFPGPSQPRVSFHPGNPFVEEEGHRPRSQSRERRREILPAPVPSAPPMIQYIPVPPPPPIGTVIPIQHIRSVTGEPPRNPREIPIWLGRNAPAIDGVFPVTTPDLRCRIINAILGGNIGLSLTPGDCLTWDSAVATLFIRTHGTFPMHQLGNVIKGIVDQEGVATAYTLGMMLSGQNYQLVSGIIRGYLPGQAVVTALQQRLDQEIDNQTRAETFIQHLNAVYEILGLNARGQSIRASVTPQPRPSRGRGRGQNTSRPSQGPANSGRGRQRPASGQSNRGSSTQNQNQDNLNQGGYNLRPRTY
UniProt P53350: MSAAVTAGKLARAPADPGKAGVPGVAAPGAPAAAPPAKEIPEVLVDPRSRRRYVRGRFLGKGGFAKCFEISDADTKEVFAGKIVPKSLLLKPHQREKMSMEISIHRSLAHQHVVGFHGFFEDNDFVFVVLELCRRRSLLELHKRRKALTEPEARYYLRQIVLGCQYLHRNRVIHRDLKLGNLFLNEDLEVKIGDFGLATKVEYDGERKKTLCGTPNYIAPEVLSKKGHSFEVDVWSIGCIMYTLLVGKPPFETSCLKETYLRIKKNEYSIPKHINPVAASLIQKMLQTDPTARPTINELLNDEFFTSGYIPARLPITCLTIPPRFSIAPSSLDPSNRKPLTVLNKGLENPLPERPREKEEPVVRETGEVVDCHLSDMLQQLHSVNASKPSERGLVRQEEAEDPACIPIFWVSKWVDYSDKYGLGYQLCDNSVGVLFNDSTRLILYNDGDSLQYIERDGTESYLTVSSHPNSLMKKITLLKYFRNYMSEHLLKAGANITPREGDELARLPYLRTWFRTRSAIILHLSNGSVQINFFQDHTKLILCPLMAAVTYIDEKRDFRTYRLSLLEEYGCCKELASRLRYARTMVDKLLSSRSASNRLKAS

These are yes or no findings as the source states them, for the method shown. Some entries that bind do so weakly or less than the wild type.

The assay concerns the target PFV Gag 1–544 fused to the GAL4 DNA binding domain (prototype foamy virus (PFV)) (UniProt P14349). Nature of the assay: two-hybrid; directed Y2H, Matchmaker System, S. cerevisiae AH109; baits fused to GAL4 DB, preys fused to GAL4 AD; growth on quadruple-dropout (-Leu/-Trp/-Ade/-His) agar after two to four days at 30°C.

Turning to “full-length human PLK1 fused to the GAL4 activation domain (from UniProt P53350 1-603) (enzyme)”, the binding entry is “binds”.
